Article doi:10.1101/2021.10.04.21264162
No constants are given. Whether binding was seen depends on the method and setting. In cells and extracts the contact can be indirect. Some results given as binding are weak or reduced against the parent protein; the word gives no strength.

Amino acid sequences for entries named in this document (tags omitted). A change or cut given only in a name is not applied to a line headed by its entry. Chains listed by the source or under a name are the forms on record and can include a tag or linker. Residues count along the entry.
YFP-tagged C-terminal region of CHD3 (residues 1246-1944) (Q12873, residues 1246-1944): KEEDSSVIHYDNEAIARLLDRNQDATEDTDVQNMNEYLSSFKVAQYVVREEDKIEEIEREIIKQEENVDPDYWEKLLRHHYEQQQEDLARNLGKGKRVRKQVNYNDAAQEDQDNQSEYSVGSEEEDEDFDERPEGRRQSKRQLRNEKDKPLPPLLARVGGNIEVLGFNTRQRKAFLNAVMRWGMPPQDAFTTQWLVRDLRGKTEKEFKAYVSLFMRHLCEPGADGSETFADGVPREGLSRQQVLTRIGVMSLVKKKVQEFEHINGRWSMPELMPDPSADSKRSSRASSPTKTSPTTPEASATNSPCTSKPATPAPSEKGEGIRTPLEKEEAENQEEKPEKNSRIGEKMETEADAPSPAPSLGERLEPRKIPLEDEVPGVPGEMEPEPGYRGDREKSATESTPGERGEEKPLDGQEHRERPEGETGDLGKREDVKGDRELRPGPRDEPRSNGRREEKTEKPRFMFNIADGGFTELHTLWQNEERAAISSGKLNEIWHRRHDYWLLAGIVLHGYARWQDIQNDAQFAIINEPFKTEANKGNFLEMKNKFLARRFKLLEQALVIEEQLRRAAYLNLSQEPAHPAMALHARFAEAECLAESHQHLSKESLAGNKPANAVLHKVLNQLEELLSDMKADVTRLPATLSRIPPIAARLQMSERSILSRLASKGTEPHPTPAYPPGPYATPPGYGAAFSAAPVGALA
YFP-tagged C-terminal region of CHD3 (residues 1246-1944) p.E1837K (Q12873, form named): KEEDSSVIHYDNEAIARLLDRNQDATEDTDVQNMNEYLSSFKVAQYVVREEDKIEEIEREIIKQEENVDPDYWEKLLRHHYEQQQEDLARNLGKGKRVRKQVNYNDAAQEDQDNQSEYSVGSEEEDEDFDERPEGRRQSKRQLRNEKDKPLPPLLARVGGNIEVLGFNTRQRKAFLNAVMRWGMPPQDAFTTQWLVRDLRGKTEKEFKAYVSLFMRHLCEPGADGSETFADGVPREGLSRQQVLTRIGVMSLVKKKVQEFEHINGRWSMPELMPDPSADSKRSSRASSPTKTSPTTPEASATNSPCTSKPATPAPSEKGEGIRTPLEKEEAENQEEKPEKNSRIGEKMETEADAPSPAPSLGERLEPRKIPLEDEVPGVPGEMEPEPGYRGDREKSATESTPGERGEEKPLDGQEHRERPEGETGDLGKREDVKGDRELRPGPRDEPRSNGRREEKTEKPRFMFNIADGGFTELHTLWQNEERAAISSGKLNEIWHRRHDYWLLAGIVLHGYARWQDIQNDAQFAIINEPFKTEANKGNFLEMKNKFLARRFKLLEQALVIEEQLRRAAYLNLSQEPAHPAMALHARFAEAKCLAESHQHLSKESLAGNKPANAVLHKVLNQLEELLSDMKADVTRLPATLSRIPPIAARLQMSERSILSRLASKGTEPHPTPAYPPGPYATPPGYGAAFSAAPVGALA
YFP-tagged C-terminal region of CHD3 (residues 1246-1944) p.R1342Q (Q12873, form named): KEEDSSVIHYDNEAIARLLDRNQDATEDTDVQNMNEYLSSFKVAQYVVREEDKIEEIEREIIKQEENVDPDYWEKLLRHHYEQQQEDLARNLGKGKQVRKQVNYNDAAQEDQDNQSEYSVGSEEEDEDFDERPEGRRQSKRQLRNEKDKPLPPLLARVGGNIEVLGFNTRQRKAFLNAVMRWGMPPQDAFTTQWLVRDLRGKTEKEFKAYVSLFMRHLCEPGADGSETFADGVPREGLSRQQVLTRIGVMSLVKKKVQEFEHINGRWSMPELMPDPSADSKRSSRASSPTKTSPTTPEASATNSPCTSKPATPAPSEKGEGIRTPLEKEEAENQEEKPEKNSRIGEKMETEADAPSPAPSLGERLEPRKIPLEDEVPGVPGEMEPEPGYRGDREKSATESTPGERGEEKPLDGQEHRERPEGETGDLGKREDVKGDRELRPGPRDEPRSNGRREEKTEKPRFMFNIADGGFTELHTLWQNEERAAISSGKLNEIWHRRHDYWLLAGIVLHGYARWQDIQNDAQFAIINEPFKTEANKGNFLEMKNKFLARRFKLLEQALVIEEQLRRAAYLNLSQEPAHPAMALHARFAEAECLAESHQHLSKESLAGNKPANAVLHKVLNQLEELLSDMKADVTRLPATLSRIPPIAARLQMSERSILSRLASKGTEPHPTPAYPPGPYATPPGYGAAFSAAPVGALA
UniProt Q8WXI9: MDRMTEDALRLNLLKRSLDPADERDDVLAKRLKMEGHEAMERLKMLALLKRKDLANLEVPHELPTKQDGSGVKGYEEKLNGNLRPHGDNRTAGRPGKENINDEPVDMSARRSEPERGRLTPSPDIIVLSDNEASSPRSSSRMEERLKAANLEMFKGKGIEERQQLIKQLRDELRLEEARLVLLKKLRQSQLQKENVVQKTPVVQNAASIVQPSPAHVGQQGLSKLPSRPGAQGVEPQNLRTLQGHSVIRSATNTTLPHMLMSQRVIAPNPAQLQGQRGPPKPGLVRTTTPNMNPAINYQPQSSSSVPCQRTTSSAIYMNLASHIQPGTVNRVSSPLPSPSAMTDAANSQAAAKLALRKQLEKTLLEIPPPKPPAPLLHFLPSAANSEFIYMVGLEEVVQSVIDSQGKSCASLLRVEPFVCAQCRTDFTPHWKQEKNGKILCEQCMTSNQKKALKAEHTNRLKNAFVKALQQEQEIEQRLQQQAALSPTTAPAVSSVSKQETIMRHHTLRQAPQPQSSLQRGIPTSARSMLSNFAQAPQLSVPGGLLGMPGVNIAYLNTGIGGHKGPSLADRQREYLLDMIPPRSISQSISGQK

What was measured:
Assay in all cases: co-IP
[1] = molecular target: YFP-tagged C-terminal region of CHD3 (residues 1246-1944) (human) (UniProt Q12873)
[2] = molecular target: YFP-tagged C-terminal region of CHD3 (residues 1246-1944) p.E1837K (human) (UniProt Q12873)
[3] = molecular target: YFP-tagged C-terminal region of CHD3 (residues 1246-1944) p.R1342Q (human) (UniProt Q12873)

Measured: binding

Rluc-tagged GATAD2B (from UniProt Q8WXI9 1-593)
binds: [1] | [2] | [3]
